Results from the supplement of paper PMC10849652.
The list shows a part of the results.

By UniProt entry, the sequences of proteins in these tests, tags left out. Where a name states a change or a piece, a line headed by the entry shows the natural chain unless it says otherwise.
UniProt P22033: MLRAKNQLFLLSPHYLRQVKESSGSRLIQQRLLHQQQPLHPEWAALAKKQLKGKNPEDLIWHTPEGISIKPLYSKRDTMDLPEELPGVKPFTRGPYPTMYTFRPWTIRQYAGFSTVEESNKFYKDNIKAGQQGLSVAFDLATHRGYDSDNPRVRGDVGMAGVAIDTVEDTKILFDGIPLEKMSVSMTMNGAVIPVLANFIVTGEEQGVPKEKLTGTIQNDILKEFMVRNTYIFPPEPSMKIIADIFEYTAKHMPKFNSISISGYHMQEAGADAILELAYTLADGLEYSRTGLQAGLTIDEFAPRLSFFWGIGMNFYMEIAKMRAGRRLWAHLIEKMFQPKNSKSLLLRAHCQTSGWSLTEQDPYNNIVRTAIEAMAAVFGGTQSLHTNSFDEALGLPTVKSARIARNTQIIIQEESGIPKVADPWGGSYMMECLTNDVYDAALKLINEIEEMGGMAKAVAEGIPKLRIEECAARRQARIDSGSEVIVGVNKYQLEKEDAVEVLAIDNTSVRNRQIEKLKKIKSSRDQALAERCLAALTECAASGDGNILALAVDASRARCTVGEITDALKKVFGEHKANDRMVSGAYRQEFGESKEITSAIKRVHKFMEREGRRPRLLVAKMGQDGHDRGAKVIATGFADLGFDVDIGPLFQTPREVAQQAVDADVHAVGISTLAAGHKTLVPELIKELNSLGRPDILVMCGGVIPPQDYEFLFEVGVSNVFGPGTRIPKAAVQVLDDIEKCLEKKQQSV
UniProt Q9HAP2: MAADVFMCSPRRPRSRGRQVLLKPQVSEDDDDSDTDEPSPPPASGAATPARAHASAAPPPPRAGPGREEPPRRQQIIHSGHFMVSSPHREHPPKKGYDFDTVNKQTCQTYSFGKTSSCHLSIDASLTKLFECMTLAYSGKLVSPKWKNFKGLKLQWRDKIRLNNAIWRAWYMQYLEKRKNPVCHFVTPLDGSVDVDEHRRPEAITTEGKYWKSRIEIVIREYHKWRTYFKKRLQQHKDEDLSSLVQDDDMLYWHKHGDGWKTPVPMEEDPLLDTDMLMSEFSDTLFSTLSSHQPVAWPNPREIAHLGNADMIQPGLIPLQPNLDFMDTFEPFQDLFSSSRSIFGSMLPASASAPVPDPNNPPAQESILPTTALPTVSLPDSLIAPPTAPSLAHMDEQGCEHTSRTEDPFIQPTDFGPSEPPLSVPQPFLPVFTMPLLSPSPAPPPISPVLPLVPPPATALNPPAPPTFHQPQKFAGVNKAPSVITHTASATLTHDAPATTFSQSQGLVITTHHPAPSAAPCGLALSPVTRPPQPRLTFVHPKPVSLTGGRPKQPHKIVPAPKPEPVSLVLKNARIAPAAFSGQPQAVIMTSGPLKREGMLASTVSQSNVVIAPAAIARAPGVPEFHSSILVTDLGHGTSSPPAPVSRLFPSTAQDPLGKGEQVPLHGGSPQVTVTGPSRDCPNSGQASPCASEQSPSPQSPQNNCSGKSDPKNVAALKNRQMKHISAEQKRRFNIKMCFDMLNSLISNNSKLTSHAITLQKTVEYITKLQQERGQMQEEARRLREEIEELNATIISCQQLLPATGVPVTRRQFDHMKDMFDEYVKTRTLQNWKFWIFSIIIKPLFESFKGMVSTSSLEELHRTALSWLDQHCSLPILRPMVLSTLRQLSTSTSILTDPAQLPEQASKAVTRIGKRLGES
UniProt Q9NXC5: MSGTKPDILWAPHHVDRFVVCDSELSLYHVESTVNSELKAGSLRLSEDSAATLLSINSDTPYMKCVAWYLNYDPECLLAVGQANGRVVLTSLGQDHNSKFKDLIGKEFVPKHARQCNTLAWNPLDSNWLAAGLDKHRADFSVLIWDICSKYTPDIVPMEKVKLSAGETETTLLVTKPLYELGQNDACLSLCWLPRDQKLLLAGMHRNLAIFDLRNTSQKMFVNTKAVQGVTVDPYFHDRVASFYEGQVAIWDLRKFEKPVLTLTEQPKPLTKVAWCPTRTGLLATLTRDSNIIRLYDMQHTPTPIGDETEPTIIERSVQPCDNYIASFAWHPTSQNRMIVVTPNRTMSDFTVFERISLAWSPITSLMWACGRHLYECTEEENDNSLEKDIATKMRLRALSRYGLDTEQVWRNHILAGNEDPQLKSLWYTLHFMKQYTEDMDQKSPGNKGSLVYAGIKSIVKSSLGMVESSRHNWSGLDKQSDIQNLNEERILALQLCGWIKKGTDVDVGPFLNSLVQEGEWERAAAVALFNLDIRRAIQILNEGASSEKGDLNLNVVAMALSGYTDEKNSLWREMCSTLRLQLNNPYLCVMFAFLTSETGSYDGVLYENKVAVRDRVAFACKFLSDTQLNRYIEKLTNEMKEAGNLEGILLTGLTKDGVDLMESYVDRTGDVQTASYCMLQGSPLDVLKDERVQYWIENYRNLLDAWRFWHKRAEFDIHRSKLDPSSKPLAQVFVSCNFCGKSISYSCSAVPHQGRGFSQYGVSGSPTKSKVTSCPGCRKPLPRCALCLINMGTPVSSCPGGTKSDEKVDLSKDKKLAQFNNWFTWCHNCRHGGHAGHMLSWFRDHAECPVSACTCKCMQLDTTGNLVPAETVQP
UniProt P29372, whole entry, looked up: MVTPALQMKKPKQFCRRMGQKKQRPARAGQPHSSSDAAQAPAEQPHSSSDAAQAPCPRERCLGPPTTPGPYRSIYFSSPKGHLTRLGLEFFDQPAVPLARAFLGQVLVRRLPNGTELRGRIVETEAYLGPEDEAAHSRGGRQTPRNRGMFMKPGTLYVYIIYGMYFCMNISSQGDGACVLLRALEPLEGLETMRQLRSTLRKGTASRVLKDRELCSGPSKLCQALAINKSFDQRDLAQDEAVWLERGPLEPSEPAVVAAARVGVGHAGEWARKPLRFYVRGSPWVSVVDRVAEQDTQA
UniProt Q7RTP6, whole entry, looked up: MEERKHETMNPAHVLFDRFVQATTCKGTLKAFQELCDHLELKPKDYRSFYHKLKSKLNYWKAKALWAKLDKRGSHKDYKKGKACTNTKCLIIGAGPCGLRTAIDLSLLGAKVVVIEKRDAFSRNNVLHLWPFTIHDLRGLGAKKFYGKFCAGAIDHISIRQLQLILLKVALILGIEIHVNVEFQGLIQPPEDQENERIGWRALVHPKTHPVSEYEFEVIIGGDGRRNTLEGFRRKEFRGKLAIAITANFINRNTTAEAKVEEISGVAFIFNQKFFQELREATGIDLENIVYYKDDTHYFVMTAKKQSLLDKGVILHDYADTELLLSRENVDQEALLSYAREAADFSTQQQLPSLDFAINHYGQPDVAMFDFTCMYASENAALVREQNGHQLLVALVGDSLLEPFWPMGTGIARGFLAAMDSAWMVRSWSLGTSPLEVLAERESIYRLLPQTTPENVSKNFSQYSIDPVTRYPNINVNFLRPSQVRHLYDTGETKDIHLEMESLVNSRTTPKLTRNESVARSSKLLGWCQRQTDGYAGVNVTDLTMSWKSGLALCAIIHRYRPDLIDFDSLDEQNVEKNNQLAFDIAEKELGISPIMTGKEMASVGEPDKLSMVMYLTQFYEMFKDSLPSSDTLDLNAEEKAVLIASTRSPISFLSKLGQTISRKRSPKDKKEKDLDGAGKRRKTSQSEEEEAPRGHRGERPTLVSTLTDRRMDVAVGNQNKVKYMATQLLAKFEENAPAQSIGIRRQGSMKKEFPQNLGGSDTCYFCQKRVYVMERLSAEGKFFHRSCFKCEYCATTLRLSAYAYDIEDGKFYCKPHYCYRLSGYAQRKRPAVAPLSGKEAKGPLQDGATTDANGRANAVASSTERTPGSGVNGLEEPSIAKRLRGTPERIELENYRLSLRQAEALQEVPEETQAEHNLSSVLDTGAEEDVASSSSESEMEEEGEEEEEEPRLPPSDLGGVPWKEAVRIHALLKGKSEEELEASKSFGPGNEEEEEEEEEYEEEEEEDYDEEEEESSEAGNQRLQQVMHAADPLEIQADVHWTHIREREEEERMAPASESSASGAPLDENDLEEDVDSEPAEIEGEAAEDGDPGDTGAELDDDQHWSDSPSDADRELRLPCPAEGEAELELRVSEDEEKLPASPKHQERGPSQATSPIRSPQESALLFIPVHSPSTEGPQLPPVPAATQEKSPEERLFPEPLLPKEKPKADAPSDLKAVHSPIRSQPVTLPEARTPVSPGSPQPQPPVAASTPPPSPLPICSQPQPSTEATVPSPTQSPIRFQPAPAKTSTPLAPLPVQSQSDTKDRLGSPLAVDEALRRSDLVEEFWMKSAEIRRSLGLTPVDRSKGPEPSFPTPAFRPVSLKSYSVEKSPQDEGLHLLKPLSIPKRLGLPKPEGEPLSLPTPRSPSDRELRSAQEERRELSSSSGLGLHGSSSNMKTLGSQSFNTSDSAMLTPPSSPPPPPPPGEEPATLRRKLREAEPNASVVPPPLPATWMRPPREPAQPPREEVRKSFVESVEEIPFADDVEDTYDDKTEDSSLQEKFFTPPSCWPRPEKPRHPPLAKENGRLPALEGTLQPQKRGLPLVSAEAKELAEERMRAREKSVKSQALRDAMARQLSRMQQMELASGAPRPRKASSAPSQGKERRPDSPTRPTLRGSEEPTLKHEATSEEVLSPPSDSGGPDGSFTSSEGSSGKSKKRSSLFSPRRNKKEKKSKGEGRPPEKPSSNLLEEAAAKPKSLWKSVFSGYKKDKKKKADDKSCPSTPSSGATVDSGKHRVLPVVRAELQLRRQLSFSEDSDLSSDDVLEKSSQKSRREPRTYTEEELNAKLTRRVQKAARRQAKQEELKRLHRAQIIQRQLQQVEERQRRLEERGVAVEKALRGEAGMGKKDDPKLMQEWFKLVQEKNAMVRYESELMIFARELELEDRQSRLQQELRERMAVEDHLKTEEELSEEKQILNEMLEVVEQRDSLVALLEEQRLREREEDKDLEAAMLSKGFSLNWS
UniProt Q9Y3A3: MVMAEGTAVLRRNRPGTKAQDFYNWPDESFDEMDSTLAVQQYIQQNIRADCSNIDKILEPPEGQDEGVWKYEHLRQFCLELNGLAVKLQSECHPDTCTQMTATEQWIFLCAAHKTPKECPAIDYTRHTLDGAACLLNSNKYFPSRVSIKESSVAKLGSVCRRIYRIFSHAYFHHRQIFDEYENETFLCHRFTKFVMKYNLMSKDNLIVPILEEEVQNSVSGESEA
UniProt Q96EY8: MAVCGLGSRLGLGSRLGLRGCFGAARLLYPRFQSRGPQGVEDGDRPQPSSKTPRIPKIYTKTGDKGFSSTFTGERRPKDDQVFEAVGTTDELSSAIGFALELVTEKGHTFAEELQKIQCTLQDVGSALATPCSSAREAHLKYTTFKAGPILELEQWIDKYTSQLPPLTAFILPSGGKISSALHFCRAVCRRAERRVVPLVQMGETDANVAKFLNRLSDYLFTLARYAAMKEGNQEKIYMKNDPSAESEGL
UniProt P25325: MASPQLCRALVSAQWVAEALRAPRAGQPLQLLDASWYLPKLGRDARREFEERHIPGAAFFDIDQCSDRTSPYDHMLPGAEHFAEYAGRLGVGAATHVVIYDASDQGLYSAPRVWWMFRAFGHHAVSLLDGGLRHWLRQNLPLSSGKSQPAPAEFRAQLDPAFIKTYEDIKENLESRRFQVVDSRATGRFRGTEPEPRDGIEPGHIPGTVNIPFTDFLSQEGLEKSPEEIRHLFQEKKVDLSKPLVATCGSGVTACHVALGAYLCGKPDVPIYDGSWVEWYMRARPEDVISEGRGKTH
UniProt Q8NHP6: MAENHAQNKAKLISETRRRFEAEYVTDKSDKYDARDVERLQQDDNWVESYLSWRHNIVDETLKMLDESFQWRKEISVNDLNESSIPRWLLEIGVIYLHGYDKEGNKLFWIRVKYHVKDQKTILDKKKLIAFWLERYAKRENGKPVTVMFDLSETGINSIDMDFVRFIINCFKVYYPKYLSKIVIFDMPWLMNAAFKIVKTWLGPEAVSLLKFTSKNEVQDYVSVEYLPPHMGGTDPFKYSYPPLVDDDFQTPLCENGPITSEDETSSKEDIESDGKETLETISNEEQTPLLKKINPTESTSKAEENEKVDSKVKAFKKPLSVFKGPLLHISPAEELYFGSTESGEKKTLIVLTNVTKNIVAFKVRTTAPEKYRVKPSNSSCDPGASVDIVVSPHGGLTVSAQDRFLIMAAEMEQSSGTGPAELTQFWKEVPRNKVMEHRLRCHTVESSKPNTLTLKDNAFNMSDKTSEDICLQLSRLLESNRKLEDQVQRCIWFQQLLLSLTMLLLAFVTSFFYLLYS
UniProt Q9NV56, whole entry, looked up: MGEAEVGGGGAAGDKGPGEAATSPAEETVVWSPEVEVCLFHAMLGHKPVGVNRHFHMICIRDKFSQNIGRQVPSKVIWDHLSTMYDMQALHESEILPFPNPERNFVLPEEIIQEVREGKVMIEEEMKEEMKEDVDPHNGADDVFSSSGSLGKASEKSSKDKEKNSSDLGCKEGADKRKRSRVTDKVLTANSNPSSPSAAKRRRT

Columns and labels:
Assay in all cases: log2 fold change, soluble protein after heating vs DMSO (PISA); higher = thermal stabilisation; K562 cells, 10 uM, 30 min; active = over 0.2 and 3.5 SD of the protein, either way, in both replicates (recomputed)
[1] = compound: COC1=CC=C(C=C1)CN2C=CC3=C2C=C(C=C3)C(=O)NO
How it was run: (§1)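 K562 cells at 2×10^6 cells/mL were exposed to 10 μM compound for 30 min, then aliquots were heated for 3 min across 48°C-58°C, pooled, and extracted in PBS containing 0.5% NP-40 at 4°C. The supernatant after 21,000xg for 90 min was taken as soluble protein and measured by TMTpro 16plex LC-MS/MS with channel sums equalised. Thermal stability is reported relative to control samples, with values from duplicates. Fold changes are given on a log2 scale.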

[2] = compound: CON(C)C(=O)N1N=C(c2cc(F)ccc2F)S[C@@]1(CCCN)c1ccccc1 [filanesib]
How it was run: as §1

[3] = compound: CO[C@H]1C[C@@H]2CC[C@@H](C)[C@@](O)(O2)C(=O)C(=O)N2CCCC[C@H]2C(=O)O[C@H]([C@H](C)C[C@@H]2CC[C@H](n3cnnn3)[C@H](OC)C2)CC(=O)[C@H](C)/C=C(\C)[C@@H](O)[C@@H](OC)C(=O)[C@H](C)C[C@H](C)/C=C/C=C/C=C/1C [zotarolimus]
How it was run: as §1

[4] = compound: COc1cc(C(=O)O)ccc1NC(=O)[C@@H]1N[C@@H](CC(C)(C)C)[C@](C#N)(c2ccc(Cl)cc2F)[C@H]1c1cccc(Cl)c1F [idasanutlin]
How it was run: as §1

[5] = compound: COc1cc(Nc2ncc3c(n2)-c2ccc(Cl)cc2C(c2c(F)cccc2OC)=NC3)ccc1C(=O)O [alisertib]
How it was run: as §1

[6] = compound: COc1cc2nc(-c3cc(F)ccc3O)nc(N[C@@H]3CNC[C@H]3C(C)(C)O)c2cc1OC
How it was run: as §1

[7] = compound: COc1cc2ncnc(Nc3ccc(F)c(Cl)c3)c2cc1OCCCN1CCOCC1 [gefitinib]
How it was run: as §1

[8] = compound: COc1cccc2cc(-c3nc([C@H]4CC[C@H](C(=O)O)CC4)n4ncnc(N)c34)[nH]c12
How it was run: as §1

[9] = compound: CS(=O)(=O)CCNCc1ccc(-c2ccc3ncnc(Nc4ccc(OCc5cccc(F)c5)c(Cl)c4)c3c2)o1 [lapatinib]
How it was run: as §1

[10] = compound: CS(=O)(=O)N1CCN(Cc2cc3nc(-c4cccc5[nH]ncc45)nc(N4CCOCC4)c3s2)CC1 [pictilisib]
How it was run: as §1

[11] = compound: CS(=O)(=O)c1ccc(-c2cnc(N)c(C(=O)Nc3ccccc3)n2)cc1
How it was run: as §1

[12] = compound: C[C@@H](Oc1cc(-c2cnn(C3CCNCC3)c2)cnc1N)c1c(Cl)ccc(F)c1Cl [crizotinib]
How it was run: as §1

[13] = compound: C[C@@H]1COCCN1C2=NC(=NC(=C2)C3(CC3)S(=O)(=O)C)C4=C5C=CNC5=CC=C4
How it was run: as §1

[14] = compound: C[C@H](C1=CC=C(C=C1)C(=O)NC2=C3C=CNC3=NC=C2)N
How it was run: as §1

[15] = compound: C[C@H](Nc1ncnc2nc[nH]c12)c1cc2cccc(Cl)c2c(=O)n1-c1ccccc1 [duvelisib]
How it was run: as §1

[16] = compound: Cc1cc(Nc2cc(CN3CCOCC3)c3nc(C)c(Cc4ccc(Cl)cc4F)n3n2)n[nH]1 [gandotinib]
How it was run: as §1

[17] = compound: Cc1cc(Nc2cc(N3CCN(C)CC3)nc(Sc3ccc(NC(=O)C4CC4)cc3)n2)n[nH]1 [tozasertib]
How it was run: as §1

[18] = compound: Cc1cc(SCc2sc(-c3ccc(C(F)(F)F)cc3)nc2C)ccc1OCC(=O)O
How it was run: as §1

[19] = compound: Cc1ccc(-n2nc(C(C)(C)C)cc2NC(=O)Nc2ccc(OCCN3CCOCC3)c3ccccc23)cc1 [doramapimod]
How it was run: as §1

[20] = compound: Cc1ccc(C(=O)N(CCCN)[C@@H](c2nc3cc(Cl)ccc3c(=O)n2Cc2ccccc2)C(C)C)cc1 [ispinesib]
How it was run: as §1

Measured: log2 fold change

MMUT (UniProt P22033)
inactive: [1] -0.029 | [2] -0.049 | [3] 0.012 | [4] -0.046 | [5] 0.042 | [6] 0.007 | [7] 0.025 | [8] 0.011 | [9] 0.021 | [10] 0.039 | [11] 0.055 | [12] 0.053 | [13] -0.007 | [14] -0.029 | [15] 0.035 | [16] 0.008 | [17] 0.012 | [18] 0.019 | [19] -0.002 | [20] 0.134

MLXIP (UniProt Q9HAP2)
inactive: [1] 0.124 | [2] -0.018 | [3] 0.127 | [4] -0.013 | [5] -0.019 | [6] -0.075 | [7] -0.021 | [8] -0.073 | [9] 0.153 | [10] 0.1 | [11] -0.016 | [12] -0.131 | [13] 0.095 | [14] -0.017 | [15] 0.1 | [16] 0.044 | [17] 0.043 | [18] 0.171 | [19] 0.061 | [20] -0.097

MRPL32 (UniProt Q9BYC8)
inactive: [1] 0.049 | [2] 0.166 | [3] -0.086 | [4] 0.17 | [5] -0.024 | [6] -0.087 | [7] -0.038 | [8] -0.099 | [9] 0.111 | [10] -0.017 | [11] -0.052 | [12] 0.013 | [13] -0.138 | [14] 0.126 | [15] -0.157 | [16] 0.087 | [17] -0.086 | [18] -0.009 | [19] -0.042 | [20] -0.202

Reprinted from above (2 entries):
MMUT (UniProt P22033)
inactive: [1] -0.029 | [2] -0.049 | [3] 0.012 | [4] -0.046 | [5] 0.042 | [6] 0.007 | [7] 0.025 | [8] 0.011 | [9] 0.021 | [10] 0.039 | [11] 0.055 | [12] 0.053 | [13] -0.007 | [14] -0.029 | [15] 0.035 | [16] 0.008 | [17] 0.012 | [18] 0.019 | [19] -0.002 | [20] 0.134

MLXIP (UniProt Q9HAP2)
inactive: [1] 0.124 | [2] -0.018 | [3] 0.127 | [4] -0.013 | [5] -0.019 | [6] -0.075 | [7] -0.021 | [8] -0.073 | [9] 0.153 | [10] 0.1 | [11] -0.016 | [12] -0.131 | [13] 0.095 | [14] -0.017 | [15] 0.1 | [16] 0.044 | [17] 0.043 | [18] 0.171 | [19] 0.061 | [20] -0.097

Next part.

MIOS (UniProt Q9NXC5)
inactive: [1] -0.031 | [2] 0.119 | [3] -0.001 | [4] 0.057 | [5] -0.066 | [6] 0.035 | [7] -0.006 | [8] -0.045 | [9] 0.014 | [10] -0.044 | [11] -0.019 | [12] 0.077 | [13] -0.123 | [14] -0.017 | [15] -0.019 | [16] -0.035 | [17] 0.072 | [18] -0.011 | [19] 0.058 | [20] 0.022

MPG (UniProt P29372)
inactive: [1] 0.156 | [2] 0.039 | [3] -0.047 | [4] 0.041 | [5] -0.078 | [6] -0.039 | [7] 0.004 | [8] -0.041 | [9] 0.037 | [10] -0.02 | [11] -0.014 | [12] -0.103 | [13] -0.015 | [14] 0.098 | [15] -0.071 | [16] -0.015 | [17] -0.028 | [18] 0.009 | [19] 0.088 | [20] -0.028

MIPEP (UniProt Q99797)
inactive: [1] 0 | [2] -0.07 | [3] 0.017 | [4] 0.007 | [5] -0.017 | [6] 0.021 | [7] 0.038 | [8] -0.002 | [9] 0.007 | [10] 0.046 | [11] 0.013 | [12] 0.113 | [13] 0.086 | [14] -0.052 | [15] 0.023 | [16] 0.023 | [17] -0.039 | [18] 0.066 | [19] -0.024 | [20] -0.025

MICAL3 (UniProt Q7RTP6)
inactive: [1] 0.027 | [2] -0.106 | [3] -0.08 | [4] 0.057 | [5] 0.073 | [6] 0.118 | [7] 0.058 | [8] -0.032 | [9] -0.073 | [10] 0.092 | [11] 0.035 | [12] -0.081 | [13] 0.05 | [14] 0.228 | [15] 0.09 | [16] 0 | [17] -0.073 | [18] 0.092 | [19] -0.016 | [20] -0.158

MOB4 (UniProt Q9Y3A3)
inactive: [1] 0.023 | [2] 0.001 | [3] 0.009 | [4] -0.008 | [5] -0.066 | [6] 0.014 | [7] 0.015 | [8] 0.022 | [9] 0.072 | [10] -0.003 | [11] 0.029 | [12] 0.014 | [13] 0.021 | [14] -0.111 | [15] 0.072 | [16] -0.057 | [17] -0.043 | [18] 0.063 | [19] -0.051 | [20] 0.015

MRPL27 (UniProt Q9P0M9)
inactive: [1] -0.024 | [2] 0.138 | [3] 0.026 | [4] -0.043 | [5] -0.097 | [6] -0.023 | [7] -0.008 | [8] -0.174 | [9] 0.235 | [10] -0.087 | [11] -0.026 | [12] -0.018 | [13] -0.146 | [14] 0.27 | [15] -0.192 | [16] 0.178 | [17] 0.011 | [18] 0.125 | [19] 0.153 | [20] -0.188

MMAB (UniProt Q96EY8)
inactive: [1] -0.003 | [2] 0.017 | [3] -0.06 | [4] -0.056 | [5] -0.029 | [6] -0.028 | [7] -0.023 | [8] 0.029 | [9] 0.005 | [10] 0 | [11] -0.031 | [12] 0.013 | [13] 0.034 | [14] -0.036 | [15] 0.059 | [16] 0.177 | [17] -0.051 | [18] -0.026 | [19] 0.02 | [20] 0.032

MOGS (UniProt Q13724)
inactive: [1] -0.002 | [2] 0.007 | [3] 0.019 | [4] 0.009 | [5] -0.037 | [6] -0.061 | [7] -0.002 | [8] -0.027 | [9] 0.114 | [10] 0.015 | [11] 0.018 | [12] -0.026 | [13] -0.046 | [14] 0.16 | [15] 0.023 | [16] -0.07 | [17] -0.002 | [18] 0.019 | [19] 0.063 | [20] -0.093

MPST isoform 2 (UniProt P25325)
inactive: [1] -0.021 | [2] 0.101 | [3] 0.025 | [4] -0.042 | [5] 0.057 | [6] -0.009 | [7] 0.036 | [8] -0.037 | [9] -0.005 | [10] 0.119 | [11] 0.015 | [12] 0.185 | [13] 0.046 | [14] -0.012 | [15] 0.048 | [16] -0.031 | [17] 0.08 | [18] 0.033 | [19] -0.038 | [20] 0.137

MOSPD2 (UniProt Q8NHP6)
inactive: [1] 0.016 | [2] -0.02 | [3] -0.001 | [4] 0.018 | [5] -0.135 | [6] -0.003 | [7] 0.05 | [8] 0.03 | [9] 0.07 | [10] 0.055 | [11] 0.047 | [12] 0.033 | [13] 0.031 | [14] -0.094 | [15] 0.009 | [16] -0.023 | [17] 0.068 | [18] 0.018 | [19] 0.077 | [20] -0.047

MRPL53 (UniProt Q96EL3)
inactive: [1] -0.093 | [2] 0.172 | [3] 0.066 | [4] 0.093 | [5] -0.071 | [6] -0.032 | [7] -0.054 | [8] -0.073 | [9] 0.159 | [10] -0.069 | [11] 0.026 | [12] 0.108 | [13] 0.002 | [14] 0.163 | [15] -0.087 | [16] 0.101 | [17] 0.035 | [18] 0.073 | [19] 0.142 | [20] -0.107

MRPL16 (UniProt Q9NX20)
inactive: [1] 0.053 | [2] 0.228 | [3] 0.073 | [4] -0.061 | [5] -0.059 | [6] 0.063 | [7] -0.092 | [8] -0.1 | [9] 0.249 | [10] -0.165 | [11] 0.027 | [12] 0.063 | [13] -0.036 | [14] 0.203 | [15] -0.108 | [16] 0.308 | [17] 0.013 | [18] -0.024 | [19] 0.1 | [20] -0.008

MRGBP (UniProt Q9NV56)
inactive: [1] 0.012 | [2] -0.009 | [3] 0.065 | [4] 0.026 | [5] -0.148 | [6] -0.064 | [7] 0.042 | [8] 0.033 | [9] 0.057 | [10] -0.075 | [11] 0.048 | [12] 0.021 | [13] -0.034 | [14] -0.001 | [15] 0.027 | [16] 0.023 | [17] 0.029 | [18] 0 | [19] 0.015 | [20] 0.024
